Measurements taken from the supplement of paper PMC10849652.
This is one part of the list.

By UniProt entry, the sequences of proteins in these tests, tags left out. Where a name states a change or a piece, a line headed by the entry shows the natural chain unless it says otherwise.
UniProt Q9NY12: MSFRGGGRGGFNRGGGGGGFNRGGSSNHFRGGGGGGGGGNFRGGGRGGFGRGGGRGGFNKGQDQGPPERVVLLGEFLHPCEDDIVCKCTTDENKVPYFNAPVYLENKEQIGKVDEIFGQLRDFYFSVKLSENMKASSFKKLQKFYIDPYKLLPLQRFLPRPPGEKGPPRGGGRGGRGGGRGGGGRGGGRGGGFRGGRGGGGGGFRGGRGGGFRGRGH
UniProt Q86YP4: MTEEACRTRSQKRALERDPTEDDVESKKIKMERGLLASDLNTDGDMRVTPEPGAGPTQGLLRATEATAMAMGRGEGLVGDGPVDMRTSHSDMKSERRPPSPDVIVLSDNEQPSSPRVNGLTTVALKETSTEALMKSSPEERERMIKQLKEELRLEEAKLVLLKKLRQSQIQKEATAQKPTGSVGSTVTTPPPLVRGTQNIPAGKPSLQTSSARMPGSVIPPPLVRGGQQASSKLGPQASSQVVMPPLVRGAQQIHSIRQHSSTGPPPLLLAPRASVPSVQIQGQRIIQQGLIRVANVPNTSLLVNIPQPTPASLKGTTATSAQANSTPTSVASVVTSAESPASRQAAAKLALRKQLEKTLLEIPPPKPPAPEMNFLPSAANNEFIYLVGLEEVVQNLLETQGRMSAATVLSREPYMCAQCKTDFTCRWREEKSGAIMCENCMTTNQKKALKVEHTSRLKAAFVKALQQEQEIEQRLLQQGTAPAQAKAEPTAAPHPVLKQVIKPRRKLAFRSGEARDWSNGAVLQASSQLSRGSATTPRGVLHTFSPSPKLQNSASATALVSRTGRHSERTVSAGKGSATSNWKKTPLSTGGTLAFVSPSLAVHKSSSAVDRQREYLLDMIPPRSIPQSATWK
UniProt Q9UN86: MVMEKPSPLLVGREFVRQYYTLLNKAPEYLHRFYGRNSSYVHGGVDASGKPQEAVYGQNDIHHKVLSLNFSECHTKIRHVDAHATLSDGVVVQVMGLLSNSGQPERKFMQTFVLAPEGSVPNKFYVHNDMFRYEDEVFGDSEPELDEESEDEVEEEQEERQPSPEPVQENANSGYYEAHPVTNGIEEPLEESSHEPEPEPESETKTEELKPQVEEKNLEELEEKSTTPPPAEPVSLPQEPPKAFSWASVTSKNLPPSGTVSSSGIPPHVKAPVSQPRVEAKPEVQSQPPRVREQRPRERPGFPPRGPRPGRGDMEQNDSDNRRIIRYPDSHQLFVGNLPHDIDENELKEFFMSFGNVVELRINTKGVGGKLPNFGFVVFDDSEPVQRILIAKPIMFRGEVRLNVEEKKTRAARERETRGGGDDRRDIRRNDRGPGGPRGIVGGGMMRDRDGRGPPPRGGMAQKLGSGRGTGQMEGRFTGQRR
UniProt P35637: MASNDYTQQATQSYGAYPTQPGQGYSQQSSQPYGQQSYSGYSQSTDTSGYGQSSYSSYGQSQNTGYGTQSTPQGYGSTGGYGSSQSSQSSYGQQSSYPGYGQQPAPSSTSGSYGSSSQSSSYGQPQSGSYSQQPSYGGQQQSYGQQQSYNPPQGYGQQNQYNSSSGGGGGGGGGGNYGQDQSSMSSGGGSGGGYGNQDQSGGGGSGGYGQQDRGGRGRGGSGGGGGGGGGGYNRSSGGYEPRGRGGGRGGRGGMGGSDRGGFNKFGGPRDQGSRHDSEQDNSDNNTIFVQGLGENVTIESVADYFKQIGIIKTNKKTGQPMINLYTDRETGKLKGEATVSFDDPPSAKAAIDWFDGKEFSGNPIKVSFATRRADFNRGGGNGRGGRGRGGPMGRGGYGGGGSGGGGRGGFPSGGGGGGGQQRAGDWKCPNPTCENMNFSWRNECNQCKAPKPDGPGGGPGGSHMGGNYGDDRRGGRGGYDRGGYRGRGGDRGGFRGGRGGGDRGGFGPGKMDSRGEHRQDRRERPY
UniProt P02794, whole entry, looked up: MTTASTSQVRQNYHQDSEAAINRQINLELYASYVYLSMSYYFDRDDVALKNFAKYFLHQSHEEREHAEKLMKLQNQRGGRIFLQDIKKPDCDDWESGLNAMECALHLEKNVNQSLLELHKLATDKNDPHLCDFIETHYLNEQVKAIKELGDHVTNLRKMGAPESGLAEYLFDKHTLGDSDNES
UniProt P48506: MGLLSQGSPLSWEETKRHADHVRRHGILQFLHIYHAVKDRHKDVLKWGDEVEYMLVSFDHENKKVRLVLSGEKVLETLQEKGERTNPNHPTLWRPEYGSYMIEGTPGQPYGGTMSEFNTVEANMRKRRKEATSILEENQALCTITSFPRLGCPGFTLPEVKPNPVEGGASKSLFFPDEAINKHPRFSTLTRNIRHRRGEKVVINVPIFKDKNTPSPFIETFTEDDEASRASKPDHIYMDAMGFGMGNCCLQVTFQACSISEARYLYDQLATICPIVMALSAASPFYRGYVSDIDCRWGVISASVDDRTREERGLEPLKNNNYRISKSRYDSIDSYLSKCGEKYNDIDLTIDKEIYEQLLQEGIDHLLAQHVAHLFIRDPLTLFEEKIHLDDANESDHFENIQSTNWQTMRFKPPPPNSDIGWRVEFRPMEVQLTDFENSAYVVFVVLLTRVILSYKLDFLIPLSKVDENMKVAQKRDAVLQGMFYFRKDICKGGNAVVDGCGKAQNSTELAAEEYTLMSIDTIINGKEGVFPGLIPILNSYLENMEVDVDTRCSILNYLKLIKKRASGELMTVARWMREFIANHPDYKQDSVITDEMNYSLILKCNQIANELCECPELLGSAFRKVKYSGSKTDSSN
UniProt O75223: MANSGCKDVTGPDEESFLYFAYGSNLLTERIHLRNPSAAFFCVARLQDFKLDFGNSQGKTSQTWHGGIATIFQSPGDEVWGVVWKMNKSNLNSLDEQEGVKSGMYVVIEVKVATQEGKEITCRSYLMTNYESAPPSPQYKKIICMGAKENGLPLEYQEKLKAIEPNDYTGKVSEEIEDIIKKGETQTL
UniProt Q9UET6: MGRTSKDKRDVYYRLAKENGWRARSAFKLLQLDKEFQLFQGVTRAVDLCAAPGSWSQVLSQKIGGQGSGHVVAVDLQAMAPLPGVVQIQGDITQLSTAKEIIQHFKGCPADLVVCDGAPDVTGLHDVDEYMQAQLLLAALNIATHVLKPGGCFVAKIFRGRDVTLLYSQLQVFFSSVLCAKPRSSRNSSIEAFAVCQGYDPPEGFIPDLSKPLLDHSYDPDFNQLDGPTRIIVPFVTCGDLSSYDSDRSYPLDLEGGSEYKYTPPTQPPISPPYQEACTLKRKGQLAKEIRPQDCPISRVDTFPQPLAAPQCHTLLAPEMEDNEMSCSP
UniProt Q7Z7M9: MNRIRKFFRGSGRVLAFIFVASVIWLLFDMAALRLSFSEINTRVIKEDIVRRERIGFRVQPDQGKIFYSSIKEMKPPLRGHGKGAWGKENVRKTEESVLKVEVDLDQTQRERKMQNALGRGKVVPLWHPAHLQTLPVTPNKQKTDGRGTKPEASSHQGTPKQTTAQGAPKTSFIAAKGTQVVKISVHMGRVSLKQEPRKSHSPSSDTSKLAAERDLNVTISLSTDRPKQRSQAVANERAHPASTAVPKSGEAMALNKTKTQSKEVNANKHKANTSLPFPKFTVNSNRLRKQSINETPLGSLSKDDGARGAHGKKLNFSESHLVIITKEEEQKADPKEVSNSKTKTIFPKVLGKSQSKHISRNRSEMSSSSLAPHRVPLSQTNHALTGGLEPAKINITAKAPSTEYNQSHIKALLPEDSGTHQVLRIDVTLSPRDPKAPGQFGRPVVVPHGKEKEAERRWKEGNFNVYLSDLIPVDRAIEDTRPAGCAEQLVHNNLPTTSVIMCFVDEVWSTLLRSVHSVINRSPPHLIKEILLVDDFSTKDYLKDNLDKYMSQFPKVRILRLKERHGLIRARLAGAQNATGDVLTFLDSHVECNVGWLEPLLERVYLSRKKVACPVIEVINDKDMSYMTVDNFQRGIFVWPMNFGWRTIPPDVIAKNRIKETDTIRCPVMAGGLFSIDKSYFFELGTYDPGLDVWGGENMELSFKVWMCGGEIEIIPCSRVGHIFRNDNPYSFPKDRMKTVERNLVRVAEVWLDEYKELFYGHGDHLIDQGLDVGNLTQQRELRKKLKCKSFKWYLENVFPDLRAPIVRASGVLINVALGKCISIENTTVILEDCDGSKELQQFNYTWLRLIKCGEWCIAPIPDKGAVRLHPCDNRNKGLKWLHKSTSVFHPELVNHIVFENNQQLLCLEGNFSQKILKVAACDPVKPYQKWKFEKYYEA
UniProt Q14697: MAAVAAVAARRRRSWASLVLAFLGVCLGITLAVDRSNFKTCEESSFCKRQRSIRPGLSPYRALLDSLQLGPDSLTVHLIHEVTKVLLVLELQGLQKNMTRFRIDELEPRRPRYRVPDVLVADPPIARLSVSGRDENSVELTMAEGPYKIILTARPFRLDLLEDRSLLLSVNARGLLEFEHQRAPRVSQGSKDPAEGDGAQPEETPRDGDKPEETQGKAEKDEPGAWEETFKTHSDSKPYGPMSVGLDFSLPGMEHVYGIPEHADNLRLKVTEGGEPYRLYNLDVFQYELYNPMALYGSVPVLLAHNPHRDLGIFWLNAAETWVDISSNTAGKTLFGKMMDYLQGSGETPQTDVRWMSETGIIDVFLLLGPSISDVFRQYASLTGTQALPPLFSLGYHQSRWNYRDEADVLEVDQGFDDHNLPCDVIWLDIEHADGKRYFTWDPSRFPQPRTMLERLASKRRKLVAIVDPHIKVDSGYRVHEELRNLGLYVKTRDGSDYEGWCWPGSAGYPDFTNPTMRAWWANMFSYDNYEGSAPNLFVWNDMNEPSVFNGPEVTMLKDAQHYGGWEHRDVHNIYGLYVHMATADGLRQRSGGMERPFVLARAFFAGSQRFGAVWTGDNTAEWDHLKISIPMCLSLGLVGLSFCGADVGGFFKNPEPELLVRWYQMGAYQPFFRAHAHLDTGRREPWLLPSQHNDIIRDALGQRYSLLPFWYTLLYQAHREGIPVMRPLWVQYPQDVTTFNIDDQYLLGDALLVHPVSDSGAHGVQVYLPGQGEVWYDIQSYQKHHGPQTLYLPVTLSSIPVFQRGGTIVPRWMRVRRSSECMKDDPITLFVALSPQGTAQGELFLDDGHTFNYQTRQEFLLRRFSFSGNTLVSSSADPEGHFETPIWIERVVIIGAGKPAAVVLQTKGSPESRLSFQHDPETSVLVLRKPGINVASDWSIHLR
UniProt Q14376: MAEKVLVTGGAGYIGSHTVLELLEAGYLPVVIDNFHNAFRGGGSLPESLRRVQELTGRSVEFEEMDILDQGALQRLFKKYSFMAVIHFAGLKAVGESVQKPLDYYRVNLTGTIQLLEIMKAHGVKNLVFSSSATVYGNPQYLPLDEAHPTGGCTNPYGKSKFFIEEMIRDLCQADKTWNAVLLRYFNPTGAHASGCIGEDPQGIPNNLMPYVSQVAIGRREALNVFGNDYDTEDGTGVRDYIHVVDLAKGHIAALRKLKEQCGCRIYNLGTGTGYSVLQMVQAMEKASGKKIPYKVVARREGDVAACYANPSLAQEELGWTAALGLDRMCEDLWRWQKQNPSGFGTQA
UniProt P34059: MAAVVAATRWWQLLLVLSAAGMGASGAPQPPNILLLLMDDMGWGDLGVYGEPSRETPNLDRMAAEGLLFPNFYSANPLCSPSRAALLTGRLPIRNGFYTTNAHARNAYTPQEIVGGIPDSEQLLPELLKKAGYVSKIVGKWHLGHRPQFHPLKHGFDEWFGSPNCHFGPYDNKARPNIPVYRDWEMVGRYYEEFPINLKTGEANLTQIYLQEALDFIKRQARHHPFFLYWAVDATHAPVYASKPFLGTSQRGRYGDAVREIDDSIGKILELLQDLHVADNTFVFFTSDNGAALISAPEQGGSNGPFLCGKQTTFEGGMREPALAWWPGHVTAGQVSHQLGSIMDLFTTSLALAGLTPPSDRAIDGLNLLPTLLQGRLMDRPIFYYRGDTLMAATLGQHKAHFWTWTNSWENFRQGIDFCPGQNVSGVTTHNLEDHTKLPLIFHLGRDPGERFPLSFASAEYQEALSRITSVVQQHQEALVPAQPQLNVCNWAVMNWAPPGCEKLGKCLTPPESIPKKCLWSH
UniProt Q96C23: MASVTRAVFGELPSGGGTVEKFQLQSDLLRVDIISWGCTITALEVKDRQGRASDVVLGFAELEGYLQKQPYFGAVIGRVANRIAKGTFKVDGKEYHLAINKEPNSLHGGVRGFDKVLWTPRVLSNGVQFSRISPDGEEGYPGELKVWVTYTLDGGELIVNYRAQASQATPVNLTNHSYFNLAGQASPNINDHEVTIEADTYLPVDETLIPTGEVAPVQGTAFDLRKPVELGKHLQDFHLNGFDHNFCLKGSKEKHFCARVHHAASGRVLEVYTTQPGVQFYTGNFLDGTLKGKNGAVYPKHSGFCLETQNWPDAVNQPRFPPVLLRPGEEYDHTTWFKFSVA

Compound: C[C@@H](Oc1cc(-c2cnn(C3CCNCC3)c2)cnc1N)c1c(Cl)ccc(F)c1Cl [crizotinib]
Experiment: log2 fold change, soluble protein after heating vs DMSO (PISA); higher = thermal stabilisation; K562 cells, 10 uM, 30 min; active = over 0.2 and 3.5 SD of the protein, either way, in both replicates (recomputed)
How it was run: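 Thermal stability values are relative to control samples and come from duplicates. They are expressed as log2 fold changes. For measurement, K562 cells (2×10^6 cells/mL) received 10 μM compound for 30 min, and aliquots were heated for 3 min over 48°C-58°C, pooled, and extracted at 4°C in PBS with 0.5% NP-40. Soluble protein, the supernatant after 21,000xg for 90 min, was quantified by TMTpro 16plex LC-MS/MS with equalised channel sums.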

log2 fold change, inactive:
GCAT isoform 2 (UniProt O75600) 0
GAR1 (UniProt Q9NY12) -0.007
GATAD2A isoform 3 (UniProt Q86YP4) -0.015
FXR1 (UniProt P51114) -0.086
FYCO1 isoform 4 (UniProt Q9BQS8) -0.143
G3BP2 (UniProt Q9UN86) -0.049
GALNT7 (UniProt Q86SF2) 0.026
GAN (UniProt Q9H2C0) 0.02
FRG1 (UniProt Q14331) -0.019
GGA3 (UniProt Q9NZ52) 0.057
GCHFR (UniProt P30047) -0.003
FUS (UniProt P35637) -0.001
GALK2 (UniProt Q01415) 0.021
GAMT (UniProt Q14353) -0.044
FTH1 (UniProt P02794) -0.091
GCLC (UniProt P48506) -0.015
FUBP1 (UniProt Q96AE4) -0.13
GAGE2A (UniProt Q6NT46) 0.066
FXR2 (UniProt P51116) -0.131
G3BP1 (UniProt Q13283) -0.029
GEMIN4 (UniProt P57678) -0.204
GGCT (UniProt O75223) -0.017
FTSJ1 (UniProt Q9UET6) -0.095
GALNT12 (UniProt Q8IXK2) -0.089
GALNT5 (UniProt Q7Z7M9) 0.111
GANAB isoform 2 (UniProt Q14697) 0.02
GGA1 isoform 6 (UniProt Q9UJY5) -0.002
GGH (UniProt Q92820) -0.019
GALE (UniProt Q14376) 0.042
GALNS (UniProt P34059) 0.062
GHITM (UniProt Q9H3K2) -0.022
G6PD isoform 2 (UniProt P11413) -0.038
GALM (UniProt Q96C23) -0.042
GFM1 (UniProt Q96RP9) -0.068
